Results are given in words; binding and its absence hold for the method and conditions named. In cells and extracts the contact can be indirect. Some binding calls cover weakened binding; strength is not graded here. Sequences can lack the tags named with a protein.

Sequences of proteins named here, by UniProt entry; tags and fusion partners are left off.
UniProt P46934: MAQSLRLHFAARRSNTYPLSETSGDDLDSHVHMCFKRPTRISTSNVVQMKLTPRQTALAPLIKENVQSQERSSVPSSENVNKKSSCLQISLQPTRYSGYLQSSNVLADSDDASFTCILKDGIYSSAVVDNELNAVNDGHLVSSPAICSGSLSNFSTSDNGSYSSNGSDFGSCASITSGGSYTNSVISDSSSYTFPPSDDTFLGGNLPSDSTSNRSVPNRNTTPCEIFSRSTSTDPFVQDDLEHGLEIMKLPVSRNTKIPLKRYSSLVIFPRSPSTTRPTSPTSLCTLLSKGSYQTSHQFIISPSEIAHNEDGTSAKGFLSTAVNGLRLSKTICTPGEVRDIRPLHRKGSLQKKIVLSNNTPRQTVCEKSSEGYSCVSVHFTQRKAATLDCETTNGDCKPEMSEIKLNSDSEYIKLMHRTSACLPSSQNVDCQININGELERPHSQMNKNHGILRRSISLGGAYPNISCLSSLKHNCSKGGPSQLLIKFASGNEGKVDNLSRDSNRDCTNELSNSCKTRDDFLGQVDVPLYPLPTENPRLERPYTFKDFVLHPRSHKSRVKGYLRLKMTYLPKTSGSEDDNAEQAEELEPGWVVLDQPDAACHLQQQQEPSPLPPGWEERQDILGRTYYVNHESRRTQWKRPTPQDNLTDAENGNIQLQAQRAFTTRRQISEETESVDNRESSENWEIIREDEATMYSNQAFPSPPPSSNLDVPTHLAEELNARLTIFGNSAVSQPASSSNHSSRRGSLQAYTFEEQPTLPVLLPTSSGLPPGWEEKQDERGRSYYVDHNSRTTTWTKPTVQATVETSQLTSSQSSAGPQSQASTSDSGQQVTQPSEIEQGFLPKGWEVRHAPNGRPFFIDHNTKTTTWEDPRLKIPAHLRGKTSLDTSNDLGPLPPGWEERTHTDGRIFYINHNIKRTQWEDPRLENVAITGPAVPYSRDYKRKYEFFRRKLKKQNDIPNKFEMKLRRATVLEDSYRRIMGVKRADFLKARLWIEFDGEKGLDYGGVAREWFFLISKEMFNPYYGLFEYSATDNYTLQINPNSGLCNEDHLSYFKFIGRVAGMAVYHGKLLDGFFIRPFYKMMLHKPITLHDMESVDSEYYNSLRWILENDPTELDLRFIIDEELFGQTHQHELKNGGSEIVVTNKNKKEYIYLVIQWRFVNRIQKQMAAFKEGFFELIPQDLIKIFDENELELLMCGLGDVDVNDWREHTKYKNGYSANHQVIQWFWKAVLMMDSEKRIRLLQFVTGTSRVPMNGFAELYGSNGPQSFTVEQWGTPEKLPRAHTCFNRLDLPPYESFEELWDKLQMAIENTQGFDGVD

This experiment has as its target T1, LCMV Z WT with a C-terminal streptavidin binding peptide (SBP) tag (LCMV) (UniProt P18541).
T1 sequence: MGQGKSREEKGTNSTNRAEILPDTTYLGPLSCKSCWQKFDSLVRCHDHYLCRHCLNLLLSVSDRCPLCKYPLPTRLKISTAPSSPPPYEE
The experiment in a line: pull-down.

Take “Nedd4 (from UniProt P46934 1-1319) (enzyme)”: the binding result is recorded as “binds”. As for “IMPDH2 (from UniProt P12268 1-514) (enzyme)”, the binding result is “binds”. As to ATP5B (from UniProt P06576 48-529), the binding result is “binds”.

Values taken from publication PMC6874086.
